Test results as given in the supplement of paper PMC10849652.
The list shows a part of the results.

By UniProt entry, the sequences of proteins in these tests, tags left out. Where a name states a change or a piece, a line headed by the entry shows the natural chain unless it says otherwise.
UniProt P05198, whole entry, looked up: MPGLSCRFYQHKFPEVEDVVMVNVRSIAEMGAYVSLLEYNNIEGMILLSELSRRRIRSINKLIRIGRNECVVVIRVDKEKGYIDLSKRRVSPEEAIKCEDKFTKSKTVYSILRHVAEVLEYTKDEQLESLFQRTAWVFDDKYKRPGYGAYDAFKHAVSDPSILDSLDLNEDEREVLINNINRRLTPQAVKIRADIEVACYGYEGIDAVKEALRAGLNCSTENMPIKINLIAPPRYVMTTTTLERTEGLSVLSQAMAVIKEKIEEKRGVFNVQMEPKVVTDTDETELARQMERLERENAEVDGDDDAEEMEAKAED
UniProt P50402: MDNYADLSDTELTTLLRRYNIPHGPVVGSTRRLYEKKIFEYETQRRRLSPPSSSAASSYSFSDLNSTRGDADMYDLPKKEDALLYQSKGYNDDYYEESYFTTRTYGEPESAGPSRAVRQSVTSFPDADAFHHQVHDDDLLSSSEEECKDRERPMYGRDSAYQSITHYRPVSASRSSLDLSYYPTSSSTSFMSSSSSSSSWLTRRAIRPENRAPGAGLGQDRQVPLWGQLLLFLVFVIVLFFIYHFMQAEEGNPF
UniProt O43402: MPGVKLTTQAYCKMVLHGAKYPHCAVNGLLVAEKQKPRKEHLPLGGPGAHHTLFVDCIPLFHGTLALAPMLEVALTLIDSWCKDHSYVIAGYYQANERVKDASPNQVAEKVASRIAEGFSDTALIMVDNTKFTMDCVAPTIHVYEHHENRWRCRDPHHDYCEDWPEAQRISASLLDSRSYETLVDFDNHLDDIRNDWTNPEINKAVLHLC
UniProt P07992: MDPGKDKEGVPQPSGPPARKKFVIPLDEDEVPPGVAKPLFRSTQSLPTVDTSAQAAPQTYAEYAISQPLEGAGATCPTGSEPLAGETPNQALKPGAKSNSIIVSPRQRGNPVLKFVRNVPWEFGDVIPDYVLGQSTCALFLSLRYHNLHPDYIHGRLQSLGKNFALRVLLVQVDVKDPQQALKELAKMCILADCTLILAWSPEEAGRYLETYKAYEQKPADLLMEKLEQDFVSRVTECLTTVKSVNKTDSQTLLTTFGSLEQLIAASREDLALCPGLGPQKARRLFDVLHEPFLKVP
UniProt Q92979: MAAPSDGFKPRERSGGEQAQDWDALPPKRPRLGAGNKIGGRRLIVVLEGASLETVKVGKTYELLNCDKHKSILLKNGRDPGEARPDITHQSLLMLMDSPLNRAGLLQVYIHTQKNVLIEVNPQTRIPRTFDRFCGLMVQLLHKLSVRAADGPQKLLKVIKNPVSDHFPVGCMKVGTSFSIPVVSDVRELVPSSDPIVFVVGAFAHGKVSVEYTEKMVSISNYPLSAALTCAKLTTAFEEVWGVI
UniProt Q13542: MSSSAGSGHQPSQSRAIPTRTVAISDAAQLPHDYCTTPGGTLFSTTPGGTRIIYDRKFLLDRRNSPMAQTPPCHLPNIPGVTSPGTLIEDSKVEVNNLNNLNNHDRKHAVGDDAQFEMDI
UniProt Q5J8M3, whole entry, looked up: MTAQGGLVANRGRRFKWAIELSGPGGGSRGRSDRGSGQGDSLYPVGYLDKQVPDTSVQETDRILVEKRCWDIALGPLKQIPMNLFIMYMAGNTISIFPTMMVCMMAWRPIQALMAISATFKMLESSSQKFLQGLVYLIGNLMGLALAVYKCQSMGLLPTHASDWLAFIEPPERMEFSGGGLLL
UniProt Q9NRA8: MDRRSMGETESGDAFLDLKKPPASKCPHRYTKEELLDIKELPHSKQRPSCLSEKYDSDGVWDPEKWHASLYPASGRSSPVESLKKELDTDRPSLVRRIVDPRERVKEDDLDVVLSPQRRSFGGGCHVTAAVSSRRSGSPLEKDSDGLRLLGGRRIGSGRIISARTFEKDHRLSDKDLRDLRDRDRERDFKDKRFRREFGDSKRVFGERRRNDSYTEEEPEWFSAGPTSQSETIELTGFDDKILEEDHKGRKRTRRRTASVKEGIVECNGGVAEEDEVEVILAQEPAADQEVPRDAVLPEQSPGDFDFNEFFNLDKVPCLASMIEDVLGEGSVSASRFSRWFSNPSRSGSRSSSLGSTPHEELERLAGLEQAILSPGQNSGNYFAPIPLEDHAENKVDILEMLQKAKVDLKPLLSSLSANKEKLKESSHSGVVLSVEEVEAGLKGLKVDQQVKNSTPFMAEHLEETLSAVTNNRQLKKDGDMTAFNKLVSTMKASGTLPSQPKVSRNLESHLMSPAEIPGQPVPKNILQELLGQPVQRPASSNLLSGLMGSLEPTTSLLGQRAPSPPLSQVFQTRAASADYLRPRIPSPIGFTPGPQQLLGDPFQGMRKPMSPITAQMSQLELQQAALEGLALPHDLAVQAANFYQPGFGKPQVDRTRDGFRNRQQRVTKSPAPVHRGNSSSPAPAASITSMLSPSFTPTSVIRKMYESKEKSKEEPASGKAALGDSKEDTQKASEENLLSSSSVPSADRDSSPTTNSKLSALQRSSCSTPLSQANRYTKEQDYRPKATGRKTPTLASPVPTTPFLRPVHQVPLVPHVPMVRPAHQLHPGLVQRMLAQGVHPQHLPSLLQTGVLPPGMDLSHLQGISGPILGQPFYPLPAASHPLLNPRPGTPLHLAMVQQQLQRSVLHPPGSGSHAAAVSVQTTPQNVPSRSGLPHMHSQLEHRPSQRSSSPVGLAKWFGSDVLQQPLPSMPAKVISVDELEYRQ
UniProt Q92556, whole entry, looked up: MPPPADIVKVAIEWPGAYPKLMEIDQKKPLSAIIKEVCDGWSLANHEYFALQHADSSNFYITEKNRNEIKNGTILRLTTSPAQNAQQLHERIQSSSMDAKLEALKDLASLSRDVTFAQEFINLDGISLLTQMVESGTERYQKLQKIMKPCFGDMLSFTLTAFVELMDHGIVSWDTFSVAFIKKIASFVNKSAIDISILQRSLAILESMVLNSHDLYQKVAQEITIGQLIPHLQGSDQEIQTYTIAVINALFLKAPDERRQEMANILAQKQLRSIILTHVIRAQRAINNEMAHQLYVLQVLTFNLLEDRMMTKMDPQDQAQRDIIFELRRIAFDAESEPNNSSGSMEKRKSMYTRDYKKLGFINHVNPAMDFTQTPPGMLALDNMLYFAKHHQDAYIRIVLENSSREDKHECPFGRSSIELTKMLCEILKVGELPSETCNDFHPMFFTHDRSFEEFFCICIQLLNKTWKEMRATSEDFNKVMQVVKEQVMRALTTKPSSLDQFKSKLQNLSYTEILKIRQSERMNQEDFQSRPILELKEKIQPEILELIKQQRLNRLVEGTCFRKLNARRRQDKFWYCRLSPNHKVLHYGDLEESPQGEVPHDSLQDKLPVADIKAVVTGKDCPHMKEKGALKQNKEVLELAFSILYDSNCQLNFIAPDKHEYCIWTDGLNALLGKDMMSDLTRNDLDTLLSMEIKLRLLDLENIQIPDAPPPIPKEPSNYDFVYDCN
UniProt Q9H5J4: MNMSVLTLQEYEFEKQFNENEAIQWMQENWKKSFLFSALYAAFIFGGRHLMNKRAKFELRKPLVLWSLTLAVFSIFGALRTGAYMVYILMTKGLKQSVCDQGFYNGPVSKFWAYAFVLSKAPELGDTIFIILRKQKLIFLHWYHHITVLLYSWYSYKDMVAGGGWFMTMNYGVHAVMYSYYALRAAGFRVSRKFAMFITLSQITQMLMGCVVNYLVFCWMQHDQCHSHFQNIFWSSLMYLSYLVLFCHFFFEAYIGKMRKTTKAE
UniProt Q9NZJ5: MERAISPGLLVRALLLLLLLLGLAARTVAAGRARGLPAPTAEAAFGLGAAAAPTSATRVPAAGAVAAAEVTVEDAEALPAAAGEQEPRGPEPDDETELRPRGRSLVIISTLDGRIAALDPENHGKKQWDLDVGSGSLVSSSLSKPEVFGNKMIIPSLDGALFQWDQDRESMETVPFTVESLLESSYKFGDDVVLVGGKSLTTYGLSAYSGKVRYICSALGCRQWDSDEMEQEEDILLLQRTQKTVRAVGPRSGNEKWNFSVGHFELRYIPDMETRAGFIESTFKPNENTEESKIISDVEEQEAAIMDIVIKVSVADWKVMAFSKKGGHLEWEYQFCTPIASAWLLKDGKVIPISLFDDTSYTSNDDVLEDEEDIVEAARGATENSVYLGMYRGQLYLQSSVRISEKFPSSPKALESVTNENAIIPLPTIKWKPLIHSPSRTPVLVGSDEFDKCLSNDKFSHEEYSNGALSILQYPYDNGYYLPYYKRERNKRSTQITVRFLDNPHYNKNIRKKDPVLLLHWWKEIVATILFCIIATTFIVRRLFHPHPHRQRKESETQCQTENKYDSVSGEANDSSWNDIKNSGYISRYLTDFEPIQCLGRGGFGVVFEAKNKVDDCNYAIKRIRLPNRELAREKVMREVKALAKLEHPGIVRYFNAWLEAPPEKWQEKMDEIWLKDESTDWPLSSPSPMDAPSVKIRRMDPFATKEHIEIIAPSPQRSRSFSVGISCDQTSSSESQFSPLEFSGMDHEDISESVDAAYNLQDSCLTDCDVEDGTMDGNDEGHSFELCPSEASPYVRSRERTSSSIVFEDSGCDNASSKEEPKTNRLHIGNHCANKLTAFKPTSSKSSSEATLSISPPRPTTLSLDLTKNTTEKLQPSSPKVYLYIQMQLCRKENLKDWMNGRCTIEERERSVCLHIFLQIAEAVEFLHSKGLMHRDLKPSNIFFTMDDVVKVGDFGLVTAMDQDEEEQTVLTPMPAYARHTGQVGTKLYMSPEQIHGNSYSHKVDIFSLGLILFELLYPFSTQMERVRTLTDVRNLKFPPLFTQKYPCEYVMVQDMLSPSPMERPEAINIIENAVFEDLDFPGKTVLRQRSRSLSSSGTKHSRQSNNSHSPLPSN
UniProt Q9UKR5: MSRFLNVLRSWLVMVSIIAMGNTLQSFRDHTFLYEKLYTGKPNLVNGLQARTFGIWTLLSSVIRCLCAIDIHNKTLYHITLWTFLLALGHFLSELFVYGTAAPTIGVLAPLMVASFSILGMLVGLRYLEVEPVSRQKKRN
UniProt P11171, whole entry, looked up: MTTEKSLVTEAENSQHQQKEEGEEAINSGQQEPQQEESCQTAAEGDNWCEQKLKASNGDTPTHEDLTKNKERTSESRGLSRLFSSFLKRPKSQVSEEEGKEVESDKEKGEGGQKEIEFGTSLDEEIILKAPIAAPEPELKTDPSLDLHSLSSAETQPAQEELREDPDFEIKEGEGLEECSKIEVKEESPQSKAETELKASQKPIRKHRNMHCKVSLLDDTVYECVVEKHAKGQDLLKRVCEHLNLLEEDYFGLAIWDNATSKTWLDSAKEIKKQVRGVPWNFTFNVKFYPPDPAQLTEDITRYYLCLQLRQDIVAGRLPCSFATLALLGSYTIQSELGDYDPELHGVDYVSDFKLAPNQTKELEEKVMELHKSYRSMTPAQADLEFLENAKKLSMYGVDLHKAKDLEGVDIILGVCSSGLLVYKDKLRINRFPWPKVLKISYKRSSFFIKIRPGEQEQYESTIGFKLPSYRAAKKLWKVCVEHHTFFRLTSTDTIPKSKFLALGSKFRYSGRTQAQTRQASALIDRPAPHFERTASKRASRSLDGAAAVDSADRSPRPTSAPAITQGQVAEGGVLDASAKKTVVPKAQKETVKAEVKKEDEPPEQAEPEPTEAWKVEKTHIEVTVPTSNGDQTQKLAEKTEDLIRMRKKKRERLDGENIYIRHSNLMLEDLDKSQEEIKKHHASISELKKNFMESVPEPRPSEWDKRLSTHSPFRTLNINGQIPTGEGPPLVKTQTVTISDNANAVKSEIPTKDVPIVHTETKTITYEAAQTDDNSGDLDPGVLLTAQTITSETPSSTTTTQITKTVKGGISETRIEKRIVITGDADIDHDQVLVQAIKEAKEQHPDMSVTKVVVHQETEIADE
UniProt Q9H2F5, whole entry, looked up: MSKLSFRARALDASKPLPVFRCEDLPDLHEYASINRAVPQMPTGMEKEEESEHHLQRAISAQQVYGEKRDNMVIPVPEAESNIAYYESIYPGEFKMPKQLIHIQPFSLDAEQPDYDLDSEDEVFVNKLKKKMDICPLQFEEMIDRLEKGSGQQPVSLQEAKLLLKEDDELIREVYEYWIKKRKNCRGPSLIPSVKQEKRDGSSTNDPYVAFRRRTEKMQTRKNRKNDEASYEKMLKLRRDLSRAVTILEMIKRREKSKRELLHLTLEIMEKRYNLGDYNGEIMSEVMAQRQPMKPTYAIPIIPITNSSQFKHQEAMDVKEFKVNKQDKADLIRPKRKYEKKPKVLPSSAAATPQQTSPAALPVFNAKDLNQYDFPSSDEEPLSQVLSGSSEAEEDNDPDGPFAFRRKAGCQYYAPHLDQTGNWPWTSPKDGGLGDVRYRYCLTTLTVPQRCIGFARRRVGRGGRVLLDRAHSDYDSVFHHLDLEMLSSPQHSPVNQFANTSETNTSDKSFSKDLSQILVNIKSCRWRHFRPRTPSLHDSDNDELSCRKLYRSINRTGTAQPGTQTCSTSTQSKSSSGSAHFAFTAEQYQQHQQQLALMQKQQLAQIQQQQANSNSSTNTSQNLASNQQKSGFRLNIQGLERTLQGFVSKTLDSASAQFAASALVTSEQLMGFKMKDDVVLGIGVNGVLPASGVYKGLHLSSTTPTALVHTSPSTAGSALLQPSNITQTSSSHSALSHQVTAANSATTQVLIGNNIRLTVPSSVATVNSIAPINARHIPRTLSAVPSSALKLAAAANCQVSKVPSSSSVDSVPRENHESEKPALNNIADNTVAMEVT

Key:
Assay in all cases: log2 fold change, soluble protein after heating vs DMSO (PISA); higher = thermal stabilisation; K562 lysate, 10 uM; active = over 0.2 and 3.5 SD of the protein, either way, in both replicates (recomputed)
[1] = compound: C1=CC=C(C=C1)[C@H](COC2=CC3=C(C=C2)NC(=O)N3)NC(=O)C4=CC=CN(C4=O)CC5=CC(=C(C=C5)F)F
How it was run: (§1)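 Following dounce homogenisation of K562 pellets in PBS pH 7.4 with 1 mM MgCl2, crude extract at 1 mg/mL protein was incubated for 30 min with 10 μM compound. Aliquots were then heated for 3 min over 48°C-58°C and pooled, NP-40 was added to 0.5% at 4°C, and soluble protein was recovered as the supernatant at 21,000xg for 90 min. Channel-sum-equalised TMTpro 16plex LC-MS/MS quantified this protein. Each value, from duplicates, is a log-two fold change in thermal stability relative to solvent controls.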

[2] = compound: CC1=C(SC2=C1C(=N[C@H](C3=NN=C(N32)C)CC(=O)N)C4=CC=C(C=C4)Cl)C
How it was run: as §1

[3] = compound: CC1=C2C(=CC=C1)N=C(N(C2=O)C3=CC=CC=C3C)CN4C=NC5=C(N=CN=C54)N
How it was run: as §1

[4] = compound: Cc1sc2c(c1C)C(c1ccc(Cl)cc1)=N[C@@H](CC(=O)OC(C)(C)C)c1nnc(C)n1-2
How it was run: as §1

[5] = compound: c1ccc([C@@H]2C[C@H]2NC2CCNCC2)cc1
How it was run: as §1

Measured: log2 fold change

EIF4E isoform 2 (UniProt P06730)
inactive: [1] 0.038 | [2] 0.029 | [3] 0.009 | [4] 0.048 | [5] -0.031

EIF2B3 (UniProt Q9NR50)
inactive: [1] -0.047 | [2] 0.008 | [3] -0.01 | [4] 0.004 | [5] 0.107

ERCC2 (UniProt P18074)
inactive: [1] -0.029 | [2] 0.03 | [3] 0.018 | [4] 0.017 | [5] 0.052

EIF4G2 (UniProt P78344)
inactive: [1] -0.105 | [2] -0.009 | [3] 0.025 | [4] 0.041 | [5] 0.041

EIF4A3 (UniProt P38919)
inactive: [1] -0.011 | [2] 0.047 | [3] 0.036 | [4] -0.036 | [5] 0

EIF2S1 (UniProt P05198)
inactive: [1] 0.007 | [2] 0.018 | [3] 0.001 | [4] -0.002 | [5] -0.02

EIF4A2 isoform 2 (UniProt Q14240)
inactive: [1] -0.009 | [2] -0.002 | [3] -0.021 | [4] 0 | [5] -0.017

EIF3I (UniProt Q13347)
inactive: [1] -0.038 | [2] 0.022 | [3] 0.01 | [4] 0.019 | [5] 0.033

EPB41L3 (UniProt Q9Y2J2)
inactive: [1] -0.01 | [2] 0.047 | [3] -0.019 | [4] 0.056 | [5] -0.027

EPHX1 (UniProt P07099)
inactive: [1] -0.021 | [2] -0.015 | [3] -0.008 | [4] 0.022 | [5] -0.012

ERI1 (UniProt Q8IV48)
inactive: [1] 0.071 | [2] -0.061 | [3] -0.022 | [4] -0.015 | [5] 0.056

EIF3H (UniProt O15372)
inactive: [1] 0.057 | [2] -0.01 | [3] -0.014 | [4] -0.039 | [5] -0.008

Reprinted at random: two records from the list.
EPB41L3 (UniProt Q9Y2J2)
inactive: [1] -0.01 | [2] 0.047 | [3] -0.019 | [4] 0.056 | [5] -0.027

EPHX1 (UniProt P07099)
inactive: [1] -0.021 | [2] -0.015 | [3] -0.008 | [4] 0.022 | [5] -0.012

The listing continues.

EIF5 (UniProt P55010)
inactive: [1] 0.013 | [2] 0.013 | [3] 0.002 | [4] 0.013 | [5] 0.031

EIF2B1 (UniProt Q14232)
inactive: [1] 0.013 | [2] 0.013 | [3] -0.027 | [4] 0.035 | [5] -0.023

EIF3E (UniProt P60228)
inactive: [1] -0.01 | [2] 0.028 | [3] 0.025 | [4] 0.045 | [5] 0.094

EPS15L1 isoform 2 (UniProt Q9UBC2)
inactive: [1] 0.021 | [2] 0.001 | [3] -0.007 | [4] -0.003 | [5] 0.018

EMD (UniProt P50402)
inactive: [1] 0.098 | [2] 0.006 | [3] 0.013 | [4] -0.008 | [5] -0.032

ELP4 (UniProt Q96EB1)
inactive: [1] 0.032 | [2] 0.026 | [3] 0.005 | [4] -0.022 | [5] -0.04

EMC2 (UniProt Q15006)
inactive: [1] 0.005 | [2] -0.018 | [3] 0.037 | [4] 0.019 | [5] 0.113

ELAC2 (UniProt Q9BQ52)
inactive: [1] 0.01 | [2] -0.011 | [3] 0.008 | [4] 0.023 | [5] -0.091

ENOPH1 (UniProt Q9UHY7)
inactive: [1] -0.029 | [2] 0.004 | [3] 0.019 | [4] -0.008 | [5] 0.05

EIF6 (UniProt P56537)
inactive: [1] 0.064 | [2] -0.051 | [3] 0.004 | [4] -0.007 | [5] -0.176

ERI3 (UniProt O43414)
inactive: [1] -0.022 | [2] -0.03 | [3] -0.023 | [4] -0.016 | [5] -0.085

EIF2S3 (UniProt P41091)
inactive: [1] -0.005 | [2] 0.034 | [3] -0.009 | [4] 0.029 | [5] 0.089

EMC6 (UniProt Q9BV81)
inactive: [1] 0.008 | [2] 0 | [3] 0.017 | [4] -0.013 | [5] -0.037

EPB41L2 (UniProt O43491)
inactive: [1] -0.003 | [2] 0.019 | [3] 0.008 | [4] -0.007 | [5] 0.032

EMC8 (UniProt O43402)
inactive: [1] -0.014 | [2] 0.037 | [3] -0.002 | [4] 0.019 | [5] 0.026

ELOB (UniProt Q15370)
inactive: [1] -0.011 | [2] -0.049 | [3] 0.008 | [4] 0.005 | [5] -0.044

EIF3G (UniProt K7ER90)
inactive: [1] 0.05 | [2] 0.047 | [3] 0.016 | [4] -0.053 | [5] -0.071

ERBIN isoform 8 (UniProt Q96RT1)
inactive: [1] -0.012 | [2] 0.02 | [3] -0.04 | [4] 0.037 | [5] -0.048

ERCC1 (UniProt P07992)
inactive: [1] 0.063 | [2] 0.001 | [3] 0.047 | [4] -0.017 | [5] -0.087

EIF3J (UniProt O75822)
inactive: [1] 0.005 | [2] 0.027 | [3] -0.011 | [4] 0 | [5] -0.052

EMG1 (UniProt Q92979)
inactive: [1] -0.004 | [2] -0.001 | [3] -0.002 | [4] -0.003 | [5] 0.018

EIF4EBP2 (UniProt Q13542)
inactive: [1] -0.101 | [2] -0.027 | [3] 0.044 | [4] -0.259 | [5] 0.135

EMC4 (UniProt Q5J8M3)
inactive: [1] -0.095 | [2] -0.062 | [3] -0.023 | [4] -0.063 | [5] 0.044

ERC1 (UniProt X6RLX0)
inactive: [1] 0.013 | [2] -0.029 | [3] 0.022 | [4] -0.042 | [5] 0.034

ELP5 isoform 4 (UniProt Q8TE02)
inactive: [1] 0.001 | [2] 0.041 | [3] 0.034 | [4] -0.021 | [5] -0.09

EPN2 (UniProt O95208)
inactive: [1] -0.012 | [2] -0.017 | [3] -0.02 | [4] -0.084 | [5] -0.161

EIF4H (UniProt Q15056)
inactive: [1] 0.032 | [2] 0.021 | [3] -0.029 | [4] 0.019 | [5] -0.053

EIF4ENIF1 isoform 3 (UniProt Q9NRA8)
inactive: [1] 0.007 | [2] -0.04 | [3] 0.075 | [4] 0.031 | [5] -0.041

EOGT (UniProt Q5NDL2)
inactive: [1] 0.005 | [2] 0.025 | [3] 0.078 | [4] -0.029 | [5] 0

ELMO1 (UniProt Q92556)
inactive: [1] -0.043 | [2] 0.133 | [3] 0.039 | [4] -0.104 | [5] 0.007

EP400P1 isoform 6 (UniProt Q6ZTU2)
inactive: [1] 0.065 | [2] -0.072 | [3] -0.03 | [4] 0.022 | [5] -0.128

ELOVL6 (UniProt Q9H5J4)
inactive: [3] -0.149 | [4] 0.238 | [5] -0.009

EIF2AK3 (UniProt Q9NZJ5)
inactive: [4] 0.025 | [5] 0.041

EIF4B (UniProt F8VP89)
inactive: [1] 0.01 | [2] 0.049 | [4] 0.114

ENTR1 (UniProt Q96C92)
inactive: [3] 0.017

ERG28 (UniProt Q9UKR5)
inactive: [1] 0.001 | [2] -0.053 | [4] -0.08 | [5] 0.277

ENTPD6 (UniProt O75354)
inactive: [1] 0.236 | [2] 0.052 | [4] 0.029 | [5] 0.054

EIF3I (UniProt Q5TFK1)
inactive: [5] 0.059

EML5 isoform 5 (UniProt Q05BV3)
inactive: [4] -0.14 | [5] -0.168

EIF4G3, A0A0A0MSA7
inactive: [4] -0.023

EPG5 (UniProt Q9HCE0)
inactive: [1] 0.034 | [2] 0.061 | [4] -0.144 | [5] 0.006

EPB41 isoform 4 (UniProt P11171)
inactive: [5] 0.106

EPC1 (UniProt Q9H2F5)
inactive: [1] -0.098 | [2] -0.109 | [5] -0.103

ERCC8 (UniProt Q13216)
inactive: [1] 0.009 | [2] -0.018 | [5] -0.028

EPHB6 (UniProt O15197)
inactive: [3] -0.132 | [5] 0.128

ELP5 isoform 2 (UniProt Q8TE02)
inactive: [5] 0.054

EIF3J isoform 2 (UniProt O75822)
inactive: [3] -0.037 | [5] 0.14

ELOF1 (UniProt P60002)
inactive: [1] 0 | [2] -0.136 | [4] 0.038 | [5] -0.14

EMC1 (UniProt H7C5A2)
inactive: [4] -0.128
